Source: PubChem BioAssay AID1224830 (NIAID, 2016)
Screen: 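Genes whose knock-down alters the TNF-alpha reporter response to LPS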 (primary screen). Cells: human THP-1 monocytic leukaemia cells, TNF dual-luciferase reporter clone, PMA-differentiated to macrophage-like cells. Reagent: siRNA pool against human genes, 50 nM. Timing: LPS for 4 h, given about 3 days after siRNA transfection. Conditions: bacterial LPS (TLR4 ligand), 10 ng/ml. Read-out: 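TNF firefly reporter luminescence divided by renilla, normalised to the plate median, then turned into a robust z-score for each replicate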. Reading the numbers: TNF reporter robust z-score: higher = stronger TNF reporter response to LPS. Call rule: 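Each well counts as active if its z-score is over 2.8 or under -1.5; controls are left without a call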.
Shown is an unselected part of about 18,000 deposited reagents. Over the whole deposit, about 2,900 (16%) are marked active. 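Calls are made per well; low scores hint the gene aids the LPS response, high scores that it dampens it.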 Repeated entries: four replicate wells of each siRNA pool. Reagent sequences are not shown.

| gene | TNF reporter robust z-score | call |
| --- | --- | --- |
| PRKAR2A | -0.79 | inactive |
| PRKAR2A | 0.91 | inactive |
| PRKAR2A | -0.5 | inactive |
| PRKAR2A | -1.45 | inactive |
| ZAR1 (zygote arrest 1) | -1.06 | inactive |
| ZAR1 (zygote arrest 1) | 0.79 | inactive |
| ZAR1 (zygote arrest 1) | 0.2 | inactive |
| ZAR1 (zygote arrest 1) | -0.48 | inactive |
| NLRP3 (NLR family pyrin domain containing 3) | 0.59 | inactive |
| NLRP3 (NLR family pyrin domain containing 3) | -0.18 | inactive |
| NLRP3 (NLR family pyrin domain containing 3) | 0.22 | inactive |
| NLRP3 (NLR family pyrin domain containing 3) | -0.5 | inactive |
| MTFR1 (mitochondrial fission regulator 1) | 0.27 | inactive |
| MTFR1 (mitochondrial fission regulator 1) | 2.12 | inactive |
| MTFR1 (mitochondrial fission regulator 1) | 1.56 | inactive |
| MTFR1 (mitochondrial fission regulator 1) | 0.4 | inactive |
| SPTLC2 (serine palmitoyltransferase long chain base subunit 2) | 0.07 | inactive |
| SPTLC2 (serine palmitoyltransferase long chain base subunit 2) | -0.41 | inactive |
| SPTLC2 (serine palmitoyltransferase long chain base subunit 2) | 0.14 | inactive |
| SPTLC2 (serine palmitoyltransferase long chain base subunit 2) | 2.3 | inactive |
| FADS1 (fatty acid desaturase 1) | -1.18 | inactive |
| FADS1 (fatty acid desaturase 1) | -1.22 | inactive |
| FADS1 (fatty acid desaturase 1) | -1.13 | inactive |
| FADS1 (fatty acid desaturase 1) | -0.33 | inactive |
| GALNT17 (polypeptide N-acetylgalactosaminyltransferase 17) | 1.5 | inactive |
| GALNT17 (polypeptide N-acetylgalactosaminyltransferase 17) | 0.63 | inactive |
| GALNT17 (polypeptide N-acetylgalactosaminyltransferase 17) | 1.13 | inactive |
| GALNT17 (polypeptide N-acetylgalactosaminyltransferase 17) | 3.67 | active |
| TOLLIP (toll interacting protein) | -1.13 | inactive |
| TOLLIP (toll interacting protein) | -0.72 | inactive |
| TOLLIP (toll interacting protein) | 0.61 | inactive |
| TOLLIP (toll interacting protein) | -1.41 | inactive |
| ASPRV1 (aspartic peptidase retroviral like 1) | -0.68 | inactive |
| ASPRV1 (aspartic peptidase retroviral like 1) | -0.24 | inactive |
| ASPRV1 (aspartic peptidase retroviral like 1) | -1.66 | active |
| ASPRV1 (aspartic peptidase retroviral like 1) | -0.82 | inactive |
| DCST2 (DC-STAMP domain containing 2) | 3.87 | active |
| DCST2 (DC-STAMP domain containing 2) | 0.94 | inactive |
| DCST2 (DC-STAMP domain containing 2) | -0.93 | inactive |
| DCST2 (DC-STAMP domain containing 2) | 0.16 | inactive |
| EZH2 (enhancer of zeste 2 polycomb repressive complex 2 subunit) | 0.13 | inactive |
| EZH2 (enhancer of zeste 2 polycomb repressive complex 2 subunit) | -0.48 | inactive |
| EZH2 (enhancer of zeste 2 polycomb repressive complex 2 subunit) | -0.68 | inactive |
| EZH2 (enhancer of zeste 2 polycomb repressive complex 2 subunit) | -0.46 | inactive |
| PDE4A (phosphodiesterase 4A) | -1.16 | inactive |
| PDE4A (phosphodiesterase 4A) | -0.76 | inactive |
| PDE4A (phosphodiesterase 4A) | -0.6 | inactive |
| METTL13 (methyltransferase 13, eEF1A N-terminus and K55) | 1.3 | inactive |
| METTL13 (methyltransferase 13, eEF1A N-terminus and K55) | 0.15 | inactive |
| METTL13 (methyltransferase 13, eEF1A N-terminus and K55) | 0.07 | inactive |
| METTL13 (methyltransferase 13, eEF1A N-terminus and K55) | 0.87 | inactive |

Not a retest: entries from further up.
| gene | TNF reporter robust z-score | call |
| --- | --- | --- |
| TOLLIP (toll interacting protein) | -0.72 | inactive |
| TOLLIP (toll interacting protein) | 0.61 | inactive |
| TOLLIP (toll interacting protein) | -1.41 | inactive |
| ASPRV1 (aspartic peptidase retroviral like 1) | -0.68 | inactive |
| ASPRV1 (aspartic peptidase retroviral like 1) | -0.24 | inactive |
| ASPRV1 (aspartic peptidase retroviral like 1) | -1.66 | active |
| ASPRV1 (aspartic peptidase retroviral like 1) | -0.82 | inactive |
| DCST2 (DC-STAMP domain containing 2) | 3.87 | active |

Additional results:
| gene | TNF reporter robust z-score | call |
| --- | --- | --- |
| SNRPA1 (small nuclear ribonucleoprotein polypeptide A') | -0.66 | inactive |
| SNRPA1 (small nuclear ribonucleoprotein polypeptide A') | -0.51 | inactive |
| SNRPA1 (small nuclear ribonucleoprotein polypeptide A') | -0.12 | inactive |
| SNRPA1 (small nuclear ribonucleoprotein polypeptide A') | 0.96 | inactive |
| PTX3 (pentraxin 3) | 0.64 | inactive |
| PTX3 (pentraxin 3) | 0.94 | inactive |
| PTX3 (pentraxin 3) | 0.16 | inactive |
| COBL (cordon-bleu WH2 repeat protein) | 0.26 | inactive |
| COBL (cordon-bleu WH2 repeat protein) | 0.63 | inactive |
| COBL (cordon-bleu WH2 repeat protein) | 0.92 | inactive |
| COBL (cordon-bleu WH2 repeat protein) | 0.79 | inactive |
| AHSA2P (activator of HSP90 ATPase homolog 2, pseudogene) | -0.86 | inactive |
| AHSA2P (activator of HSP90 ATPase homolog 2, pseudogene) | -0.35 | inactive |
| AHSA2P (activator of HSP90 ATPase homolog 2, pseudogene) | -0.58 | inactive |
| AHSA2P (activator of HSP90 ATPase homolog 2, pseudogene) | 0 | inactive |
| APBA2 (amyloid beta precursor protein binding family A member 2) | -1.28 | inactive |
| APBA2 (amyloid beta precursor protein binding family A member 2) | -0.89 | inactive |
| APBA2 (amyloid beta precursor protein binding family A member 2) | -0.84 | inactive |
| APBA2 (amyloid beta precursor protein binding family A member 2) | -0.05 | inactive |
| LRRC55 (leucine rich repeat containing 55) | 0.19 | inactive |
| LRRC55 (leucine rich repeat containing 55) | -0.3 | inactive |
| LRRC55 (leucine rich repeat containing 55) | -0.4 | inactive |
| LRRC55 (leucine rich repeat containing 55) | -0.53 | inactive |
| VRK1 (VRK serine/threonine kinase 1) | 1 | inactive |
| VRK1 (VRK serine/threonine kinase 1) | 0.71 | inactive |
| VRK1 (VRK serine/threonine kinase 1) | 1.37 | inactive |
| VRK1 (VRK serine/threonine kinase 1) | -1.23 | inactive |
| PPP1R27 (protein phosphatase 1 regulatory subunit 27) | -0.18 | inactive |
| PPP1R27 (protein phosphatase 1 regulatory subunit 27) | -0.43 | inactive |
| PPP1R27 (protein phosphatase 1 regulatory subunit 27) | 2.91 | active |
| PPP1R27 (protein phosphatase 1 regulatory subunit 27) | -0.3 | inactive |
| MPHOSPH10 (M-phase phosphoprotein 10) | 1.71 | inactive |
| MPHOSPH10 (M-phase phosphoprotein 10) | -0.78 | inactive |
| MPHOSPH10 (M-phase phosphoprotein 10) | -0.99 | inactive |
| MPHOSPH10 (M-phase phosphoprotein 10) | 0.99 | inactive |
| YIF1B | -1.97 | active |
| YIF1B | -1.22 | inactive |
| YIF1B | -1.07 | inactive |
| YIF1B | -1.27 | inactive |
| ROBO4 (roundabout guidance receptor 4) | -0.21 | inactive |
| ROBO4 (roundabout guidance receptor 4) | -1.07 | inactive |
| ROBO4 (roundabout guidance receptor 4) | -0.5 | inactive |
| TCN2 (transcobalamin 2) | -0.78 | inactive |
| TCN2 (transcobalamin 2) | 0.15 | inactive |
| TCN2 (transcobalamin 2) | -0.72 | inactive |
| TCN2 (transcobalamin 2) | -0.08 | inactive |
| DGKA (diacylglycerol kinase alpha) | 2.25 | inactive |
| DGKA (diacylglycerol kinase alpha) | 2.44 | inactive |
| DGKA (diacylglycerol kinase alpha) | 2.96 | active |
| DGKA (diacylglycerol kinase alpha) | 0.22 | inactive |
| EMC4 (ER membrane protein complex subunit 4) | -0.97 | inactive |
| EMC4 (ER membrane protein complex subunit 4) | -0.77 | inactive |
| EMC4 (ER membrane protein complex subunit 4) | -1.03 | inactive |
| EMC4 (ER membrane protein complex subunit 4) | -0.79 | inactive |
| PACS1 (phosphofurin acidic cluster sorting protein 1) | -0.17 | inactive |
| PACS1 (phosphofurin acidic cluster sorting protein 1) | -0.13 | inactive |
| PACS1 (phosphofurin acidic cluster sorting protein 1) | -0.18 | inactive |
| PACS1 (phosphofurin acidic cluster sorting protein 1) | -0.33 | inactive |
| CSGALNACT2 (chondroitin sulfate N-acetylgalactosaminyltransferase 2) | -0.27 | inactive |
| CSGALNACT2 (chondroitin sulfate N-acetylgalactosaminyltransferase 2) | 0.19 | inactive |
| CSGALNACT2 (chondroitin sulfate N-acetylgalactosaminyltransferase 2) | -1.01 | inactive |
| CSGALNACT2 (chondroitin sulfate N-acetylgalactosaminyltransferase 2) | -0.06 | inactive |
